Source: article PMC12268154

Experiments:
Experiment in all cases: EMSA
Conditions in all cases: EMSA with biotin-labeled probes following Dong et al. [14], pH and temperature not stated, recombinant protein, protein details: GST (pGEX-4T-3), label: biotin
[1] = system: EsNAC098 (Eleutherococcus senticosus)
[2] = system: EsNAC047 (Eleutherococcus senticosus)
[3] = system: EsMYB4 (Eleutherococcus senticosus)
[4] = system: EsERF66 (Eleutherococcus senticosus)
[5] = system: EsWRKY40 (Eleutherococcus senticosus)
[6] = methylated probe, DNA methylation (positions not stated)

“CCTTAGAAGACGTTCTTGAGCTAAAAAGATATTATTCTCAATTCTCCTACAAGGCACAAAAGCAAATTGAAAAGTAAAGGTAATGTCAGGCAAGG (double strand) [EsNAC098-EsbAS1 probe, methylated]”: binds [1, 6].

“CCTTAGAAGACGTTCTTGAGCTAAAAAGATATTATTCTCAATTCTCCTACAAGGCACAAAAGCAAATTGAAAAGTAAAGGTAATGTCAGGCAAGG (double strand) [EsNAC098-EsbAS1 probe]”: binds [1].

“GATGCAGGAGTTGATCACTAGTGTTCAACAACTAGCTGATGAAGTACGCAAACTGAATGATGACACCAAGGGGGAGAATACAAG (double strand) [EsNAC047-EsCAS1 / EsMYB-EsCAS1 probe (same sequence)]”: binds [2]; binds [3].

“GATGCAGGAGTTGATCACTAGTGTTCAACAACTAGCTGATGAAGTACGCAAACTGAATGATGACACCAAGGGGGAGAATACAAG (double strand) [EsNAC047-EsCAS1 / EsMYB-EsCAS1 probe, methylated]”: binds [2, 6]; binds [3, 6].

“GCACCGCAAGTTATACCAACCAAGCCCAAAGAGATGTGGGGGAAGTTTGAGTGACATTCAGAAGATGTGAAAGAATAACAGAGG (double strand) [EsMYB-EsbAS1 probe, methylated]”: binds [3, 6].

“GCACCGCAAGTTATACCAACCAAGCCCAAAGAGATGTGGGGGAAGTTTGAGTGACATTCAGAAGATGTGAAAGAATAACAGAGG (double strand) [EsMYB-EsbAS1 probe]”: binds [3].

“GCTTCACAAACACAGATGCAGGAGTTGATCACTAGTGTTCAACAACTAGCTGATGAAGTACGCAAACTGAATGATGACACCAAGGGGGAG (double strand) [EsERF-EsCAS1 probe, methylated]”: binds [4, 6].

“GCTTCACAAACACAGATGCAGGAGTTGATCACTAGTGTTCAACAACTAGCTGATGAAGTACGCAAACTGAATGATGACACCAAGGGGGAG (double strand) [EsERF-EsCAS1 probe]”: binds [4].

“GGAGATGCACTTATATGTGGTGTTGCAACAGGAGATAGGTTTGAAATCCCCCATGTTAGTCAAGTTCCCAACCTTAGGGATGAGACACGGAAAGT (double strand) [EsNAC047-EsbAS1 probe, methylated]”: binds [2, 6].

“GGAGATGCACTTATATGTGGTGTTGCAACAGGAGATAGGTTTGAAATCCCCCATGTTAGTCAAGTTCCCAACCTTAGGGATGAGACACGGAAAGT (double strand) [EsNAC047-EsbAS1 probe]”: binds [2].

“GGGGCATTTTCACTTAAATCTAGCCAAAATAGATTTTATTATCTTAAGAATGTTGGTGGAAAGGATGAAGTGGGCACACCAGTAAGCT (double strand) [EsERF-EsbAS1 probe, methylated]”: binds [4, 6].

“GGGGCATTTTCACTTAAATCTAGCCAAAATAGATTTTATTATCTTAAGAATGTTGGTGGAAAGGATGAAGTGGGCACACCAGTAAGCT (double strand) [EsERF-EsbAS1 probe]”: binds [4].

“GTACAGAAACAGCAACAGGCCTTATCAAACAAATCTTTGAAATGAAGGAGCTAATTGCAGCTCAAACTGAATGGGCAGACACTAGTCTCTCCCTG (double strand) [EsNAC098-EsCAS1 probe, methylated]”: binds [1, 6].

“GTACAGAAACAGCAACAGGCCTTATCAAACAAATCTTTGAAATGAAGGAGCTAATTGCAGCTCAAACTGAATGGGCAGACACTAGTCTCTCCCTG (double strand) [EsNAC098-EsCAS1 probe]”: binds [1].

“GTTCCTCAAATAAGAAGTCCCATCTGATAGAGTCAAAAGCTTTTTTCAAATCAATCTTCATATAGCATTTAGGAGGACCAGAGGCTCTATAG (double strand) [EsWRKY-EsbAS1 probe, methylated]”: binds [5, 6].

“GTTCCTCAAATAAGAAGTCCCATCTGATAGAGTCAAAAGCTTTTTTCAAATCAATCTTCATATAGCATTTAGGAGGACCAGAGGCTCTATAG (double strand) [EsWRKY-EsbAS1 probe]”: binds [5].

“TGGTCCATCCCAAGCCTGGCAGGCTTTGACCAGGCCAGGCCGGGCCAGACTCAAAATTTATAAAGGCCGGGCCAAGCTGAATA (double strand) [EsWRKY-EsCAS1 probe, methylated]”: binds [5, 6].

“TGGTCCATCCCAAGCCTGGCAGGCTTTGACCAGGCCAGGCCGGGCCAGACTCAAAATTTATAAAGGCCGGGCCAAGCTGAATA (double strand) [EsWRKY-EsCAS1 probe]”: binds [5].

The exact form of at least one protein or probe is not confirmed. At least one verdict rests on a figure or table, not on a statement of the authors.
